Reference: paper PMC5231280
No constants are given. Whether binding was seen depends on the method and setting. Binding calls can cover weak binding; strength is not graded here.

Experiments:
Experiment in all cases: two-hybrid; GAL4-based, pGBKT7 and pGADT7-Rec fusions co-transformed into yeast AH109; growth on SD -Leu -Trp -His -Ade with X-gal / X-alpha-GAL
[1] = target: TeTM6-1 protein (Tagetes erecta)
[2] = target: TeTM6-2 protein (Tagetes erecta)
[3] = target: TeAP3-2 protein (Tagetes erecta)
[4] = target: TeAP3-1 protein (Tagetes erecta)

binding [1]	binding [2]	binding [3]	binding [4]	Substance
no binding	no binding	no binding		TeAP3-1 protein (from UniProt A0A1B2YKU0)
no binding	no binding			TeAP3-2 protein (from UniProt A0A1B2YKT8)
binds	binds	binds	binds	TePI protein (from UniProt A0A1B2YKT1)
	no binding			TeTM6-1 protein (from UniProt A0A1B2YKT5)
